Results deposited as PubChem BioAssay AID652243 (Drosophila RNAi Screening Center, 2013).

Screen: 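Fly genes required for human androgen receptor driven transcription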 (primary screen)
Cells: Drosophila S2R+ cells
Knock-down reagent: long dsRNA against Drosophila genes
Time to read-out: 72 h (48 h, then 24 h hormone)
Challenge: synthetic androgen R1881 at 10 nM for 24 h
Read-out: 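Per-well raw luminescence of the androgen-driven firefly reporter and of the Renilla control, two replicates each, without normalisation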
Scale: firefly reporter light: higher = more light from androgen-responsive reporter; Renilla control light: higher = more constitutive control signal (cell number, transfection)
Call rule: 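Across duplicate plates, a knock-down whose log firefly/Renilla ratio shifted a set fold down or up from the GFP/LacZ control mean was a hit; the downward cut appears as both 1.5 and 3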
Meaning of the calls: active = hit: reporter lowered or raised; inactive = no hit
The screen tested about 24,000 reagents; below is a random part of those that have a named target and a result. Of all reagents, 246 (1%) are marked active. 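Plates not normalised; calls are printed but the firefly/Renilla ratio behind them is not deposited; fold cut for lowering reported inconsistently.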 Raw values vary from plate to plate and are shown uncorrected. Unmarked entries are inactive. The record does not give: the amount of reagent.

| gene | DRSC id | firefly reporter light, replicate 1 | firefly reporter light, replicate 2 | Renilla control light, replicate 1 | Renilla control light, replicate 2 |
| --- | --- | --- | --- | --- | --- |
| CG30043 | DRSC06285 | 2.39e5 | 1.74e5 | 1.45e6 | 1.40e6 |
| CG31407 | DRSC12761 | 1.43e5 | 66014 | 1.28e5 | 1.39e5 |
| Ugt316A1 | DRSC10376 | 2.51e5 | 1.49e5 | 2.81e6 | 2.05e6 |
| CG31882 | DRSC01084 | 1.30e5 | 1.31e5 | 5.16e5 | 4.39e5 |
| Acp53C14b | DRSC06569 | 38786 | 70061 | 6.15e5 | 6.15e5 |
| CG12853 | DRSC06193 | 1.02e6 | 1.01e6 | 1.83e6 | 1.67e6 |
| CG12853 | DRSC27193 | 2.99e5 | 3.75e5 | 7.34e5 | 7.82e5 |
| VepD | DRSC22318 | 9.37e5 | 1.07e6 | 1.76e6 | 1.39e6 |
| VepD | DRSC27653 | 4.96e5 | 3.85e5 | 8.09e5 | 9.26e5 |
| pncr008:3L (retired record) | DRSC37877 | 5.61e5 | 5.98e5 | 1.42e6 | 1.69e6 |
| pncr008:3L (retired record) | DRSC39122 | 8.85e5 | 6.23e5 | 1.89e6 | 1.47e6 |
| CG13170 | DRSC06298 | 1.19e5 | 77593 | 7.24e5 | 7.31e5 |
| CG13170 | DRSC25159 | 1.09e6 | 9.12e5 | 1.36e6 | 1.43e6 |

2 entries from above in another layout.
pncr008:3L (retired record) [DRSC37877] → firefly reporter light, replicate 1 = 5.61e5; firefly reporter light, replicate 2 = 5.98e5; Renilla control light, replicate 1 = 1.42e6; Renilla control light, replicate 2 = 1.69e6
pncr008:3L (retired record) [DRSC39122] → firefly reporter light, replicate 1 = 8.85e5; firefly reporter light, replicate 2 = 6.23e5; Renilla control light, replicate 1 = 1.89e6; Renilla control light, replicate 2 = 1.47e6

Continued.
| gene | DRSC id | firefly reporter light, replicate 1 | firefly reporter light, replicate 2 | Renilla control light, replicate 1 | Renilla control light, replicate 2 |
| --- | --- | --- | --- | --- | --- |
| E(Pc) | DRSC05281 | 1.99e5 | 2.29e5 | 3.73e5 | 3.97e5 |
| E(Pc) | DRSC07408 | 2.60e5 | 1.96e5 | 1.20e6 | 1.17e6 |
| Snx27 | DRSC17786 | 3.26e5 | 3.80e5 | 2.34e6 | 3.00e6 |
| Snx27 | DRSC18282 | 2.74e5 | 3.31e5 | 3.51e6 | 3.81e6 |
| Snx27 | DRSC18284 | 2.28e5 | 3.13e5 | 1.71e6 | 1.81e6 |
| Oatp33Ea | DRSC02859 | 7.82e5 | 8.81e5 | 8.85e5 | 1.44e6 |
| Oatp33Ea | DRSC26461 | 3.58e5 | 3.68e5 | 5.06e5 | 7.23e5 |
| CG13455 | DRSC10002 | 1.05e5 | 97897 | 9.46e5 | 1.20e6 |
| CG15814 | DRSC19730 | 1.26e5 | 95969 | 9.22e5 | 8.60e5 |
| Piezo | DRSC03092 | 4.80e5 | 9.44e5 | 1.24e6 | 1.27e6 |
| Piezo | DRSC03391 | 3.08e5 | 2.87e5 | 1.92e6 | 2.03e6 |
